Results are given in words; binding and its absence hold for the method and conditions named. In cells and extracts the contact can be indirect. Some results given as binding are weak or reduced against the parent protein; the word gives no strength. Where a sequence is shown, tags or fusion partners need not be part of it.
Target: C-terminally FLAG-tagged UL31 (HSV-1 nuclear egress complex protein pUL31) (HSV-1) (UniProt P10215)
Experiment: co-IP

Protein sequences, listed by entry. Tags and fused reporters are not part of them.
UniProt P10215: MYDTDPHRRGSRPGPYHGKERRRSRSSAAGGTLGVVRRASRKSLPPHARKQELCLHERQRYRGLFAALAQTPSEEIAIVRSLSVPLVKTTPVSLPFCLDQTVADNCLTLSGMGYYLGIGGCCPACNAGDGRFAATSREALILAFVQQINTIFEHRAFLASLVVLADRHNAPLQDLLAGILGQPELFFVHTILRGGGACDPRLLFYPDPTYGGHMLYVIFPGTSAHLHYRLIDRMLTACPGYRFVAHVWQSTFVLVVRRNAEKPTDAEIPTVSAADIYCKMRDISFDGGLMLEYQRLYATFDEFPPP

B1: EGFP-tagged UL13 (HSV-1 protein kinase pUL13) (protein, UniProt P04290 1-518)
chain: MDESRRQRPAGHVAANLSPQGARQRSFKDWLASYVHSNPHGASGRPSGPSLQDAAVSRSSHGSRHRSGLRERLRAGLSRWRMSRSSHRRASPETPGTAAKLNRPPLRRSQAALTAPPSSPSHILTLTRIRKLCSPVFAINPALHYTTLEIPGARSFGGSGGYGDVQLIREHKLAVKTIKEKEWFAVELIATLLVGECVLRAGRTHNIRGFIAPLGFSLQQRQIVFPAYDMDLGKYIGQLASLRTTNPSVSTALHQCFTELARAVVFLNTTCGISHLDIKCANILVMLRSDAVSLRRAVLADFSLVTLNSNSTIARGQFCLQEPDLKSPRMFGMPTALTTANFHTLVGHGYNQPPELLVKYLNNERAEFTNHRLKHDVGLAVDLYALGQTLLELVVSVYVAPSLGVPVTRFPGYQYFNNQLSPDFALALLAYRCVLHPALFVNSAETNTHGLAYDVPEGIRRHLRNPKIRRAFTDRCINYQHTHKAILSSVALPPELKPLLVLVSRLCHTNPCARHALS
In the case of B1, the binding is reported as “binds”.

Source: article doi:10.1101/2023.03.20.533584
